These are yes or no findings as the source states them, for the method shown. In cells and extracts the contact can be indirect. Here binding means that the protein was enriched with, or labelled near, the bait; the list need not be complete. For some of these results: A no says only that the protein was not detected with the bait. Sequences can lack the tags named with a protein. One block for each binder: values may come before it.
Columns and labels:
Mos10-6His (yeast) = molecular target: T1, Mos10-6His (yeast) (UniProt Q03390); test: affinity purification with mass spectrometry
T1 sequence: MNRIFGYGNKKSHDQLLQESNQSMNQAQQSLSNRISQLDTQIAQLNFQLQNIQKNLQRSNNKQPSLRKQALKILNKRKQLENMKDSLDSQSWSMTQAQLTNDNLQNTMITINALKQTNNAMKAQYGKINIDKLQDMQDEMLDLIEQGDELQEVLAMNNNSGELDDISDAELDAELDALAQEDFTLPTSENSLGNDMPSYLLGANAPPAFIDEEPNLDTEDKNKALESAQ

Mos10-sfGFP (yeast) = molecular target: T2, Mos10-sfGFP (yeast) (UniProt Q03390); test: affinity purification with mass spectrometry
T2 sequence: T1 sequence

binding (Mos10-6His (yeast)): binds
binding (Mos10-sfGFP (yeast)): binds
B1: Did2 (protein, UniProt P69771 1-204)
chain: MSRNSAAGLENTLFQLKFTSKQLQKQANKASKEEKQETNKLKRALNENEDISRIYASNAIRKKNERLQLLKLASRVDSVASRVQTAVTMRQVSASMGQVCKGMDKALQNMNLQQITMIMDKFEQQFEDLDTSVNVYEDMGVNSDAMLVDNDKVDELMSKVADENGMELKQSAKLDNVPEIKAKEVNVDDEKEDKLAQRLRALRG

binding (Mos10-6His (yeast)): no binding
B2: Bag7 (protein, UniProt Q12128 1-409)
chain: MFNMNLLSTPSSEEGSPQNRSSSMSSVEGKKDRDTFTNLQNEFDGKVFGVSLEESLKVAQEEVIIQKSTNEIGSIPVVIAKSGKYLKENALDTTGIFRIAGSNKRVRELQAVFSKPPDYGRKFEGWCDFNVHDIATLLKRYLNSLSEPLVPLALYDIFRNPILENPKINEHKEQIIKDYEDIYMLLPQQNRHLILYLAALLNLFARNEKKNLMSASNLAAIVQPSLLSHPKDEMCPKEYEASRTVIEFLILHASDIIPNTEKANKDTMPHAGTVAKFNNITVPEMAIDSDEEDFVHPSIDDHMLPRSRALSDSNNFTIHHHHHHHHALFPSPIDFDNNGLSVPRSFKGRTLSAESLSPRLSKLLGNVGNSSNTGIKDPTERVPRGEHKTKHKQRQSWLRRLTSPSRTQP

binding (Mos10-6His (yeast)): no binding
B3: Ykr075c (protein, UniProt P36155 1-307)
chain: MTSLDDTIISYQNIMLLDNMTNYNKPAIDYFHHEFNDASLEISASWTLLLKMRKHKLLRLPSCSSEDVLDYNMYLVRLHHCLWRRWSINHYGLQNSKSNPLSINWNKETDVTVLYGPDLTNIDSNENEISPVQNQIDQKQTKNLKSALKKNTECWVTEEVDEINASIESNDNALVKLEDISCPSSVDSHTSSIFDQHSTCTKISSIDEDSEDLMNEKKEQFPRKLKFNQAVMKREIDSKGTIRESLININDIQHSRHHRRHHRRHHHHHHQNSSHSDETIKEAHYEFSNYTFGTMEEDIFYRNQVVF
